The record followed here is publication PMC4773433, “The Bub1–Plk1 kinase complex promotes spindle checkpoint signalling through Cdc20 phosphorylation” (Nature Communications, 2016).

Chains of the proteins cited; added tags and fusions are not shown. Lines headed by an entry give the natural chain unless they say otherwise; changes in a name come on top. A line that says so, or that is headed by a name, gives the form on record, which may keep a tag or linker.
UniProt Q12834: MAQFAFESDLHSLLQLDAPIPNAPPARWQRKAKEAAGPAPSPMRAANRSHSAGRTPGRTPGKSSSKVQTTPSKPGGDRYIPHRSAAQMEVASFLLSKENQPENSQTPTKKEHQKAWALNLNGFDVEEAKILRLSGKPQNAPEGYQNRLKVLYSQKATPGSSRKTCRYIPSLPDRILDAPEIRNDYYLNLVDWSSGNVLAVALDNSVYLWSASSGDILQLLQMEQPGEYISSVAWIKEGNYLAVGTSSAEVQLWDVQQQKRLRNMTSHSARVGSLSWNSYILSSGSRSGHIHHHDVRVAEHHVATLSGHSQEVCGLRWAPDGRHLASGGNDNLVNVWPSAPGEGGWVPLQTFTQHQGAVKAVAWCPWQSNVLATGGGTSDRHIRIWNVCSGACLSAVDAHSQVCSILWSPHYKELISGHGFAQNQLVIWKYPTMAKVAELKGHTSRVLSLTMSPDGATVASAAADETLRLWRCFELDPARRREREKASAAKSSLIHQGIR
Flag-Cdc20 5A (Q12834, form named): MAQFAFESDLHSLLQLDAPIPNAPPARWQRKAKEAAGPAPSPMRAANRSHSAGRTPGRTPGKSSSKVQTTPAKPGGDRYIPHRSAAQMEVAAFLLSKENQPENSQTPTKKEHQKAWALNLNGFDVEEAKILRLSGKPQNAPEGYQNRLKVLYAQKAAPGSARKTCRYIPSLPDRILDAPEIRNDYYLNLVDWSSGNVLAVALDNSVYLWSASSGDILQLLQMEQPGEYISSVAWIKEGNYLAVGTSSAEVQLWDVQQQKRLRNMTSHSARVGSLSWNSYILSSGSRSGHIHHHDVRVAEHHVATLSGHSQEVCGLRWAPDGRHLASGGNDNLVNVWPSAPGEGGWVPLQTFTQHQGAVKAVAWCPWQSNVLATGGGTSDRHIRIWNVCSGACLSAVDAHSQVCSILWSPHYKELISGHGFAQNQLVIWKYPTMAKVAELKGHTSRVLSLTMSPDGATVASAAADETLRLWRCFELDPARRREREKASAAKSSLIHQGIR
UniProt O43684: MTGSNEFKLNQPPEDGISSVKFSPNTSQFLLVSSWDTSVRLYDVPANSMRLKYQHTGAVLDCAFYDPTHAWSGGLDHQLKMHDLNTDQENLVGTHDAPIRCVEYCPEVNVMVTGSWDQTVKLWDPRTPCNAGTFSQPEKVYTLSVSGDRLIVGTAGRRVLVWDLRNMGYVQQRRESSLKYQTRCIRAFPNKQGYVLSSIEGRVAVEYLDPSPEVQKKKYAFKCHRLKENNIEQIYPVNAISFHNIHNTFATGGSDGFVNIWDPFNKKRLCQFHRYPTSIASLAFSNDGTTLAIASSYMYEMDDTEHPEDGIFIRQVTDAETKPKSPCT

For assay [1], the target named is Strep–His6–Bub1 (full-length) (human) (UniProt O43683). The assay is described as follows: affinity co-purification of co-expressed proteins; Strep–His6–Bub1 (full-length or ΔKinase) co-expressed with His6–Bub3 in Sf9 cells; complexes purified on Strep-Tactin Superflow Plus resin in buffer B (50 mM Tris-HCl pH 7.7, 200 mM NaCl) and eluted with 15 mM D-desthiobiotin.

The target in assay [2] is T1, Strep–His6–Bub1^ΔKinase (residues 1–723) (human) (UniProt O43683).
T1 sequence: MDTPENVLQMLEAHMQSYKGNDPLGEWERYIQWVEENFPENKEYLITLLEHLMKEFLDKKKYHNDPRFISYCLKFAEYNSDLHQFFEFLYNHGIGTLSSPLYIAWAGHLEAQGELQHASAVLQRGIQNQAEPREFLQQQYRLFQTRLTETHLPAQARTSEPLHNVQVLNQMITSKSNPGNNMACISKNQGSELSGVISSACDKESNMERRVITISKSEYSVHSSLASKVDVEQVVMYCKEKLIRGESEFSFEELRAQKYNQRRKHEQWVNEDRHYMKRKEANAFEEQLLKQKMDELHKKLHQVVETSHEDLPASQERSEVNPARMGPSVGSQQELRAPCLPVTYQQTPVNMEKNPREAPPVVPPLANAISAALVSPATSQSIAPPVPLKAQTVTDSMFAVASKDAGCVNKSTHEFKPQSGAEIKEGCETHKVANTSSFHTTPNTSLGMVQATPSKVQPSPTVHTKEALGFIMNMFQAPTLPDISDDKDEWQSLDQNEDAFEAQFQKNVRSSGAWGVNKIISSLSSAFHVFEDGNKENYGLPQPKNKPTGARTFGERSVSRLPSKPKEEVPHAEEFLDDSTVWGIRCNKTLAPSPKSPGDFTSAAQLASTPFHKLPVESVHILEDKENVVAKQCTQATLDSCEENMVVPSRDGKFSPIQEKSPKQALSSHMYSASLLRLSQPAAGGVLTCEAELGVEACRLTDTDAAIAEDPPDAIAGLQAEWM
The description is as above.

The target in another assay is Flag-Cdc20 5A (human) (UniProt Q12834). The assay is described as follows: co-IP; anti-Flag immunoprecipitation from lysates of HeLa Tet-On cells stably expressing Flag-Cdc20 WT or 5A, arrested in mitosis by 5 μM nocodazole; blots.
The next assay concerns the target Flag-Cdc20 WT (human) (UniProt Q12834). The description is as above.

Results are given in words; binding and its absence hold for the method and conditions named. For some of these results: In cells and extracts the contact can be indirect. Some results given as binding are weak or reduced against the parent protein; the word gives no strength. For some of these results: Sequences can lack the tags named with a protein.

Consider His6–Bub3 (from UniProt O43684 1-328), for which the binding entry in assay [1] and in assay [2] was “binds” each time.

B1: p31^comet (protein, UniProt Q15013 1-274)
chain: MAAPEAEVLSSAAVPDLEWYEKSEETHASQIELLETSSTQEPLNASEAFCPRDCMVPVVFPGPVSQEGCCQFTCELLKHIMYQRQQLPLPYEQLKHFYRKPSPQAEEMLKKKPRATTEVSSRKCQQALAELESVLSHLEDFFARTLVPRVLILLGGNALSPKEFYELDLSLLAPYSVDQSLSTAACLRRLFRAIFMADAFSELQAPPLMGTVVMAQGHRNCGEDWFRPKLNYRVPSRGHKLTVTLSCGRPSIRTTAWEDYIWFQAPVTFKGFRE
As for B1, the binding result in the assay with Flag-Cdc20 5A (human) and with Flag-Cdc20 WT (human) was “binds” in each case.
